Measured values reported in the supplement of paper PMC10849652.
This is one part of the list. Residues, ends and D or L forms follow the SMILES beside them. *: point of attachment. Cbz = O=C(OCc1ccccc1)*

The chains behind the UniProt entries cited, without tags or fusion partners. Where a name states a change or a piece, a line headed by the entry shows the natural chain unless it says otherwise.
UniProt Q8IY17: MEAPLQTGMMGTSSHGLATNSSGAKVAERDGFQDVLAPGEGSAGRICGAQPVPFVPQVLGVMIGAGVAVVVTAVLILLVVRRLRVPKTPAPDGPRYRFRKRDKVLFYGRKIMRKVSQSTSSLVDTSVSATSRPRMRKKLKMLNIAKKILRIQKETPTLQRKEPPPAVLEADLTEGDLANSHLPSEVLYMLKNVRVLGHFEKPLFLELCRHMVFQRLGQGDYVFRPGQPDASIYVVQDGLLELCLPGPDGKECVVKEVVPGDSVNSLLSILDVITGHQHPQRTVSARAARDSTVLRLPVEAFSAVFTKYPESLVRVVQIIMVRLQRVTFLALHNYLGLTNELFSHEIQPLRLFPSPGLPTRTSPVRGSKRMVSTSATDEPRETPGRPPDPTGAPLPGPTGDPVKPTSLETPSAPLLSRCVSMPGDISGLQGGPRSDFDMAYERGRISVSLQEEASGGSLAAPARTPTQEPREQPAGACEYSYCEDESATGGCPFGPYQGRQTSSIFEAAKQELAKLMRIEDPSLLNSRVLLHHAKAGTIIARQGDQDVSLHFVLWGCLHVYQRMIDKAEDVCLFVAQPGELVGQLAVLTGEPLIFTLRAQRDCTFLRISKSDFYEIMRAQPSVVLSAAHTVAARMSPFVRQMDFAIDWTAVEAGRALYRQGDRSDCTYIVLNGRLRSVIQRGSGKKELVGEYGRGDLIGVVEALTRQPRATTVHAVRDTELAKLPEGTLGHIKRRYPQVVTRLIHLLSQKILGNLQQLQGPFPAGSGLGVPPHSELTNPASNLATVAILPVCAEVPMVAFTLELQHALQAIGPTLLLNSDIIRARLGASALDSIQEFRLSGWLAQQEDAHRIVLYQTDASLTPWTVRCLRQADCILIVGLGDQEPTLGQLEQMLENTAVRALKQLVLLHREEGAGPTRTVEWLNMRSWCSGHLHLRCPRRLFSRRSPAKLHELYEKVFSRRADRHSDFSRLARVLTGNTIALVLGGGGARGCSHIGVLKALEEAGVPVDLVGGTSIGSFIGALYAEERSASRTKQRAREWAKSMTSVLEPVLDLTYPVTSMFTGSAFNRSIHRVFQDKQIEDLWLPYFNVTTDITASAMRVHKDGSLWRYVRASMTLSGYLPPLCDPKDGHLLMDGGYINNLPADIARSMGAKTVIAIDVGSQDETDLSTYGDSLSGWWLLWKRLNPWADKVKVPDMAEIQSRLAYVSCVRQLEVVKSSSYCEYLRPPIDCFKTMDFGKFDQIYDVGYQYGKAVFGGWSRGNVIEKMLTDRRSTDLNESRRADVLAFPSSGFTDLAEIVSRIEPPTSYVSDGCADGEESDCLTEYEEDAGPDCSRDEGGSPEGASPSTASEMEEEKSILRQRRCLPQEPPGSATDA
UniProt P23284: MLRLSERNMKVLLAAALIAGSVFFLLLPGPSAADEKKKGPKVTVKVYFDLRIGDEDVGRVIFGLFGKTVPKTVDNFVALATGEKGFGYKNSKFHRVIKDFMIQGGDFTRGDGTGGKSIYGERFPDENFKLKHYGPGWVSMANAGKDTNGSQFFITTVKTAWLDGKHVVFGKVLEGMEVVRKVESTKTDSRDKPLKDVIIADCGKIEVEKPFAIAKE
UniProt Q8IY26: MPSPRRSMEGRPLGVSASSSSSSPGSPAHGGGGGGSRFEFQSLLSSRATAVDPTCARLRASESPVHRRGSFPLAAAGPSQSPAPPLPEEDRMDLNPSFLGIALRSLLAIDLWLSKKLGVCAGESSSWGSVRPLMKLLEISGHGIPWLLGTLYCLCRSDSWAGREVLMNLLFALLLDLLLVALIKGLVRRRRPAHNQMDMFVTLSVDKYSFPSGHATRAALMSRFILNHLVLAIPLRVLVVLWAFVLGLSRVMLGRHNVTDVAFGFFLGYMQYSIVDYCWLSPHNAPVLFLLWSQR
UniProt O43447: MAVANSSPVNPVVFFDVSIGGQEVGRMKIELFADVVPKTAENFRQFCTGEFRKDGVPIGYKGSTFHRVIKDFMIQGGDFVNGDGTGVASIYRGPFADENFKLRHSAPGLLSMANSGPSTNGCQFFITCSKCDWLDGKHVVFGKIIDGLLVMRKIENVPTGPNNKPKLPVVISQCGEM
UniProt P49005: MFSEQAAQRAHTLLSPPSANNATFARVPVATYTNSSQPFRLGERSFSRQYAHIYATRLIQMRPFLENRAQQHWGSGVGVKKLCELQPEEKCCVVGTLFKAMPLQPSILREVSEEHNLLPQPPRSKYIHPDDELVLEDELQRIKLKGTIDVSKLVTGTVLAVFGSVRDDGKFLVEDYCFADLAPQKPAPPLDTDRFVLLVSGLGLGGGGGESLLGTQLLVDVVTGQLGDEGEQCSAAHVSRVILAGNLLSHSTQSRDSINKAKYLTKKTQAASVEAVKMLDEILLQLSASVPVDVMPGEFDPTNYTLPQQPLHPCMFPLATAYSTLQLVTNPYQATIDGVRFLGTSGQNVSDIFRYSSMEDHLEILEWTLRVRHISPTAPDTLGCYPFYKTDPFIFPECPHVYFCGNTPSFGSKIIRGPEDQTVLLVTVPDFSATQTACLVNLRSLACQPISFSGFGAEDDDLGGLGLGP
UniProt O75817: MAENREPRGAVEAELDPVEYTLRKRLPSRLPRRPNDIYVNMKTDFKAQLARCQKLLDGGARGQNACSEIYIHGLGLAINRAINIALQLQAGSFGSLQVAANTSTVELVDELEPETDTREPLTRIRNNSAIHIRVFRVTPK
UniProt O60664: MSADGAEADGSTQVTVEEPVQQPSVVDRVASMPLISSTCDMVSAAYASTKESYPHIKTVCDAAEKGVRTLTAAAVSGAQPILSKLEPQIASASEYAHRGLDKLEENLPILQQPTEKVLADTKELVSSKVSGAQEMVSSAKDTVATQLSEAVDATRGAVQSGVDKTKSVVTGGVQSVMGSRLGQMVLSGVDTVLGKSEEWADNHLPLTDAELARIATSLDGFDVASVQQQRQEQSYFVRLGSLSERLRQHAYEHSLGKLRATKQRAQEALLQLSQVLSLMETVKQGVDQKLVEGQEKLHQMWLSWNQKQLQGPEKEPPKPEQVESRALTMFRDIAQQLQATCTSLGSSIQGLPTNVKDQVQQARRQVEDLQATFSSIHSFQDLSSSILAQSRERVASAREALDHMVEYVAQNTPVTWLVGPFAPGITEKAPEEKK
UniProt Q8N490: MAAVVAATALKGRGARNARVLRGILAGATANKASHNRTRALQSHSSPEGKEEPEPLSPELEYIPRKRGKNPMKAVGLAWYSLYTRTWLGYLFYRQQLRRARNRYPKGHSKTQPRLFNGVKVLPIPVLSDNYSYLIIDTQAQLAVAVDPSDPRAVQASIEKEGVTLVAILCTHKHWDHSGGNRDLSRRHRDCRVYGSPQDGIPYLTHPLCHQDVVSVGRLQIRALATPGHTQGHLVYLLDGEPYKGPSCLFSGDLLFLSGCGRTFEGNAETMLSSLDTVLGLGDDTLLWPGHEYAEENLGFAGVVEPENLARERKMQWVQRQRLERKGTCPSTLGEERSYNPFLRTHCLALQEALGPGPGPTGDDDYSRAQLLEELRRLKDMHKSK
UniProt Q6UW63: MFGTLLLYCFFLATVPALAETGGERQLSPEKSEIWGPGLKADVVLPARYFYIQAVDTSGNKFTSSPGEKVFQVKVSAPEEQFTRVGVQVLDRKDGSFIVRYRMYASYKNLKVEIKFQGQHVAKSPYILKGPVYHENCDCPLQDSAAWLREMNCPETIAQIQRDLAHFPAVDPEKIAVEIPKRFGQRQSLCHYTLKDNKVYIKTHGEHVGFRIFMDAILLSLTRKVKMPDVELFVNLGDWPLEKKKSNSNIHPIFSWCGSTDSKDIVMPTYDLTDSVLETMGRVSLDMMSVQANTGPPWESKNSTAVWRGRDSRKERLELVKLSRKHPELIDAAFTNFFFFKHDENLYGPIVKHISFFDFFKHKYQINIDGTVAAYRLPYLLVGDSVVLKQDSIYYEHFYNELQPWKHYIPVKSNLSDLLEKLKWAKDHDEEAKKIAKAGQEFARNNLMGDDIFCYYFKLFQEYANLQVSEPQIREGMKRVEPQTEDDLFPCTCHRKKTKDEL
UniProt O75334: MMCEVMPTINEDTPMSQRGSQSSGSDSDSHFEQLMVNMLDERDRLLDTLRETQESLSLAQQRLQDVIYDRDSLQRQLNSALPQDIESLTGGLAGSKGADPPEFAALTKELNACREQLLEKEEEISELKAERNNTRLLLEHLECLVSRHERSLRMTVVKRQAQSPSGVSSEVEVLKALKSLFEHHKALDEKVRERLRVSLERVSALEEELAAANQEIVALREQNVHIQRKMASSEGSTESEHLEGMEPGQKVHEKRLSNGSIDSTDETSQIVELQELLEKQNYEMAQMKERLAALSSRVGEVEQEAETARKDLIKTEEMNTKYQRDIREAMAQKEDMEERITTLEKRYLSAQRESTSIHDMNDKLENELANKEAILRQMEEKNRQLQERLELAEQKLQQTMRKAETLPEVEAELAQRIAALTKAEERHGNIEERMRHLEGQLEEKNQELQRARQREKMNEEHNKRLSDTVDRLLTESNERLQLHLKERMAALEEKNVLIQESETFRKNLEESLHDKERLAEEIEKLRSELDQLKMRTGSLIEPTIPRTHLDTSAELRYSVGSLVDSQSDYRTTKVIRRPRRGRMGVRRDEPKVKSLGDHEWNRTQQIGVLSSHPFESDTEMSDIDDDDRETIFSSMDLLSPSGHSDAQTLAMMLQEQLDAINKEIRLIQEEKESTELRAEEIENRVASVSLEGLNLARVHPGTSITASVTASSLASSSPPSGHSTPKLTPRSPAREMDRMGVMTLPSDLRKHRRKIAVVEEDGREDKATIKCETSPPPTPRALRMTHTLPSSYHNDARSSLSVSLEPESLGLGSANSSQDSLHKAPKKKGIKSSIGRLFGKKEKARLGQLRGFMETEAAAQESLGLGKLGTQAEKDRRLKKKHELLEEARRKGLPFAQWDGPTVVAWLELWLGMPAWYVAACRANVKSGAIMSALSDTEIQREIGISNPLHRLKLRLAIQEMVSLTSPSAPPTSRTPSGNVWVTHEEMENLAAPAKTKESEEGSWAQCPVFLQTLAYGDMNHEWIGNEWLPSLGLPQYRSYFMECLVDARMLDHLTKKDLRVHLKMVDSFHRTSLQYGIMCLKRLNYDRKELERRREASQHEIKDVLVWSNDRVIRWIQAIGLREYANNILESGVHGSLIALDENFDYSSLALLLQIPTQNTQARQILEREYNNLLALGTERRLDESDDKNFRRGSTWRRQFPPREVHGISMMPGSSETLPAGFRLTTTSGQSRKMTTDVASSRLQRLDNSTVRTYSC
UniProt Q9H2H8: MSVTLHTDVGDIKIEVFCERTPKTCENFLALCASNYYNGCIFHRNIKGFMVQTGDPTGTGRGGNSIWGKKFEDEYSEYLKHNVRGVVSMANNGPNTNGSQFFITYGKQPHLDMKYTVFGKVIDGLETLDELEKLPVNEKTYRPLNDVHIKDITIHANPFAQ
UniProt Q9Y2S7: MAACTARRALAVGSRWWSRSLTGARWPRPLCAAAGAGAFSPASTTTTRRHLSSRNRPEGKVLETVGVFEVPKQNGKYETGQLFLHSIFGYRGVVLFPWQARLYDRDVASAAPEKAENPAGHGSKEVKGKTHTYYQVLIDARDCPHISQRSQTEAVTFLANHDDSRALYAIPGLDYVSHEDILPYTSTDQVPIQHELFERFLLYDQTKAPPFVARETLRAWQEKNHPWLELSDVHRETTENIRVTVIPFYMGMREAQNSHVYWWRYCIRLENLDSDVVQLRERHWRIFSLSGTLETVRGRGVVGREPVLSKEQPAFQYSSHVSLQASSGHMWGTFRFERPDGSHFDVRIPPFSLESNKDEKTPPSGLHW
UniProt Q9H1D9: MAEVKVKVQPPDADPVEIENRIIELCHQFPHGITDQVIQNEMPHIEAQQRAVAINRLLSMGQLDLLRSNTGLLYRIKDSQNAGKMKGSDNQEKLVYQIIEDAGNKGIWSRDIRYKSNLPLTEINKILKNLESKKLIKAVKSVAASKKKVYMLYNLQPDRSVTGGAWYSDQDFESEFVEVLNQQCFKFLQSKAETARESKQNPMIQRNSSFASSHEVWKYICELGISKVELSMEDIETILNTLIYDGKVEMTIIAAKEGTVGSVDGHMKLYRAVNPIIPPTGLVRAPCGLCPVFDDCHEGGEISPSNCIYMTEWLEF

What was measured:
Assay in all cases: log2 fold change, soluble protein after heating vs DMSO (PISA); higher = thermal stabilisation; K562 cells, 10 uM, 30 min; active = over 0.2 and 3.5 SD of the protein, either way, in both replicates (recomputed)
erlotinib = compound: C#Cc1cccc(Nc2ncnc3cc(OCCOC)c(OCCOC)cc23)c1 [erlotinib]
In short: (§1)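 For each measurement, 10 μM compound was applied for 30 min to K562 cells at 2×10^6 cells/mL. Aliquots were heated for 3 min across 48°C-58°C, pooled, and extracted in PBS with 0.5% NP-40 at 4°C; the supernatant after 21,000xg for 90 min was soluble protein. This was quantified by TMTpro 16plex LC-MS/MS with channel sums equalised, and thermal stability was reported relative to control samples from duplicates, on a log2 fold-change scale.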

[1] = compound: C/C(=N\NC(=O)C1=CC(=CC=C1)S(=O)(=O)N2CCOCC2)/C3=C(C=CC(=C3)Cl)O
In short: as §1

[2] = compound: C1=CC(=C(C=C1Cl)C2=NC3=NC=CN=C3C(=N2)NC4=CC=NC=C4)F
In short: as §1

[3] = compound: C1=CC(=CC=C1C2=NC3=C(N2)C=C(C=C3)C(=O)N)OC4=CC=C(C=C4)Cl
In short: as §1

[4] = compound: C1=CC2=C(C=CC(=C2)/C=C\3/C(=O)NC(=NCC4=CC=CS4)S3)N=C1
In short: as §1

[5] = compound: C1=CC2=NC=CN=C2C=C1/C=C/3\C(=O)NC(=O)S3
In short: as §1

[6] = compound: C1=CC=C(C=C1)C2=NC(=C(N2)C3=CC=NC=C3)C4=CC(=C(C=C4)Cl)O
In short: as §1

[7] = compound: C1=CC=C2C(=C1)C3=NNC4=CC=CC(=C43)C2=O
In short: as §1

[8] = compound: C1CCN(C1)C(=O)NC2=CC=CC(=C2)NC3=NC=C(C(=N3)NCCC4=CN=CN4)Br
In short: as §1

[9] = compound: C1CN(CCC1(CC2=CC=C(C=C2)Cl)N)C3=NC=NC4=C3C=CN4
In short: as §1

IRAK-1-4 Inhibitor I = compound: C1COCCN1CCN2C3=CC=CC=C3N=C2NC(=O)C4=CC(=CC=C4)[N+](=O)[O-] [IRAK-1-4 Inhibitor I]
In short: as §1

ibrutinib = compound: C=CC(=O)N1CCC[C@@H](n2nc(-c3ccc(Oc4ccccc4)cc3)c3c(N)ncnc32)C1 [ibrutinib]
In short: as §1

[10] = compound: CC(=O)c1cnc2ccc(-c3cc(Cl)c(O)c(Cl)c3)nc2c1N[C@H]1CC[C@H](CN(C)C)CC1
In short: as §1

ralimetinib = compound: CC(C)(C)Cn1c(N)nc2ccc(-c3[nH]c(C(C)(C)C)nc3-c3ccc(F)cc3)nc21 [ralimetinib]
In short: as §1

[11] = compound: CC(C)(O)CC(=O)NCCn1ccc2ncnc(Nc3ccc(Oc4cccc(C(F)(F)F)c4)c(Cl)c3)c21
In short: as §1

[12] = compound: CC(C)C1=C2N=C(C=C(N2N=C1)NCC3=CC=CC=C3)NCCCCCCN
In short: as §1

[13] = compound: CC(C)C[C@@H](C=O)NC(=O)[C@H](CC(C)C)NC(=O)[C@H](CC(C)C)NC(=O)OCc1ccccc1
In short: as §1

pinometostat = compound: CC(C)N(C[C@H]1O[C@@H](n2cnc3c(N)ncnc32)[C@H](O)[C@@H]1O)[C@H]1C[C@@H](CCc2nc3cc(C(C)(C)C)ccc3[nH]2)C1 [pinometostat]
In short: as §1

[14] = compound: CC1=C(C(CC(=O)N1)C2=CC=C(C=C2)C(F)(F)F)C(=O)NC3=C(C=C4C(=C3)C=NN4)F
In short: as §1

[15] = compound: CC1=C(C2=C(C=C1)C(=O)C3=CC=CC=C3N2CCCN)C
In short: as §1

Measured: log2 fold change

PNPLA6 (UniProt Q8IY17)
inactive: erlotinib 0 | [1] 0.027 | [2] 0.062 | [3] 0.264 | [4] -0.009 | [5] 0.024 | [6] -0.036 | [7] 0.003 | [8] 0 | [9] -0.008 | IRAK-1-4 Inhibitor I -0.054 | ibrutinib 0.019 | [10] -0.066 | ralimetinib 0.101 | [11] -0.179 | [12] -0.006 | [13] 0.013 | pinometostat 0.085 | [14] 0.043 | [15] 0.075

PPIB (UniProt P23284)
inactive: erlotinib -0.088 | [1] -0.033 | [2] -0.035 | [3] 0 | [4] -0.023 | [5] -0.029 | [6] -0.028 | [7] 0.013 | [8] 0.014 | [9] -0.015 | IRAK-1-4 Inhibitor I -0.035 | ibrutinib -0.033 | [10] 0.028 | ralimetinib 0.021 | [11] 0.069 | [12] 0.026 | [13] 0.02 | pinometostat 0.025 | [14] 0.011 | [15] 0.007

PLPP6 (UniProt Q8IY26)
inactive: erlotinib 0.095 | [1] 0.176 | [2] 0.062 | [3] 0.083 | [4] -0.197 | [5] 0.017 | [6] 0.014 | [7] -0.054 | [8] -0.105 | [9] 0.066 | IRAK-1-4 Inhibitor I -0.149 | ibrutinib -0.098 | [10] 0.111 | ralimetinib 0.019 | [11] -0.099 | [12] 0.01 | [13] -0.071 | pinometostat -0.02 | [14] 0.012 | [15] -0.148

PPIH (UniProt O43447)
inactive: erlotinib 0.05 | [1] 0.022 | [2] 0.088 | [3] -0.026 | [4] 0.031 | [5] 0.027 | [6] 0.012 | [7] 0.019 | [8] -0.003 | [9] -0.002 | IRAK-1-4 Inhibitor I 0.036 | ibrutinib -0.054 | [10] -0.04 | ralimetinib -0.041 | [11] -0.095 | [12] -0.001 | [13] -0.017 | pinometostat -0.02 | [14] 0.003 | [15] 0.025

Pulled one by one from the entries so far (two):
PLPP6 (UniProt Q8IY26)
inactive: erlotinib 0.095 | [1] 0.176 | [2] 0.062 | [3] 0.083 | [4] -0.197 | [5] 0.017 | [6] 0.014 | [7] -0.054 | [8] -0.105 | [9] 0.066 | IRAK-1-4 Inhibitor I -0.149 | ibrutinib -0.098 | [10] 0.111 | ralimetinib 0.019 | [11] -0.099 | [12] 0.01 | [13] -0.071 | pinometostat -0.02 | [14] 0.012 | [15] -0.148

PNPLA6 (UniProt Q8IY17)
inactive: erlotinib 0 | [1] 0.027 | [2] 0.062 | [3] 0.264 | [4] -0.009 | [5] 0.024 | [6] -0.036 | [7] 0.003 | [8] 0 | [9] -0.008 | IRAK-1-4 Inhibitor I -0.054 | ibrutinib 0.019 | [10] -0.066 | ralimetinib 0.101 | [11] -0.179 | [12] -0.006 | [13] 0.013 | pinometostat 0.085 | [14] 0.043 | [15] 0.075

Continued.

POLD2 (UniProt P49005)
inactive: erlotinib -0.026 | [1] 0.019 | [2] 0.013 | [3] 0.006 | [4] 0.056 | [5] 0.019 | [6] -0.048 | [7] -0.03 | [8] -0.005 | [9] -0.018 | IRAK-1-4 Inhibitor I 0.014 | ibrutinib -0.027 | [10] -0.062 | ralimetinib 0.087 | [11] -0.028 | [12] -0.054 | [13] 0.018 | pinometostat -0.017 | [14] 0.013 | [15] -0.007

POP7 (UniProt O75817)
inactive: erlotinib 0.167 | [1] -0.02 | [2] -0.153 | [3] -0.045 | [4] 0.021 | [5] -0.073 | [6] -0.015 | [7] -0.043 | [8] -0.05 | [9] -0.025 | IRAK-1-4 Inhibitor I -0.008 | ibrutinib -0.046 | [10] -0.009 | ralimetinib 0.039 | [11] -0.001 | [12] 0.109 | [13] 0.032 | pinometostat 0.013 | [14] 0.081 | [15] -0.213

PLIN3 (UniProt O60664)
inactive: erlotinib 0.023 | [1] 0.029 | [2] 0.037 | [3] 0.014 | [4] 0.022 | [5] 0.006 | [6] 0.003 | [7] -0.016 | [8] -0.028 | [9] 0.013 | IRAK-1-4 Inhibitor I 0.022 | ibrutinib -0.008 | [10] 0.002 | ralimetinib -0.001 | [11] -0.016 | [12] -0.05 | [13] -0.013 | pinometostat -0.04 | [14] 0.009 | [15] 0.02

PNKD isoform 3 (UniProt Q8N490)
inactive: erlotinib 0.026 | [1] 0.01 | [2] -0.092 | [3] -0.007 | [4] 0.089 | [5] -0.104 | [6] 0.02 | [7] -0.015 | [8] -0.022 | [9] 0.013 | IRAK-1-4 Inhibitor I 0.018 | ibrutinib 0.177 | [10] 0.013 | ralimetinib 0.088 | [11] 0.025 | [12] -0.045 | [13] 0.126 | pinometostat -0.014 | [14] 0.005 | [15] 0.101

POGLUT2 (UniProt Q6UW63)
inactive: erlotinib -0.076 | [1] -0.055 | [2] -0.047 | [3] 0.041 | [4] 0.036 | [5] 0.006 | [6] -0.05 | [7] 0.039 | [8] -0.011 | [9] -0.015 | IRAK-1-4 Inhibitor I -0.052 | ibrutinib -0.03 | [10] -0.007 | ralimetinib -0.005 | [11] 0.019 | [12] -0.01 | [13] 0.047 | pinometostat 0.058 | [14] 0.037 | [15] -0.06

POLR3C (UniProt Q9BUI4)
inactive: erlotinib -0.002 | [1] 0.008 | [2] -0.002 | [3] 0.005 | [4] 0.036 | [5] 0.021 | [6] -0.028 | [7] -0.03 | [8] -0.089 | [9] 0.04 | IRAK-1-4 Inhibitor I 0.045 | ibrutinib -0.023 | [10] -0.026 | ralimetinib -0.031 | [11] 0.02 | [12] -0.016 | [13] 0.017 | pinometostat -0.044 | [14] 0.004 | [15] 0.075

PPFIA2 (UniProt O75334)
inactive: erlotinib -0.109 | [1] 0.144 | [2] -0.148 | [3] 0.029 | [4] -0.045 | [5] 0.011 | [6] 0.102 | [7] 0.08 | [8] 0.021 | [9] 0.206 | IRAK-1-4 Inhibitor I -0.344 | ibrutinib -0.019 | [10] 0.006 | ralimetinib 0.302 | [11] 0.013 | [12] 0.27 | [13] 0.101 | pinometostat 0.085 | [14] 0.15 | [15] -0.054

PPIL3 isoform 2 (UniProt Q9H2H8)
inactive: erlotinib -0.023 | [1] 0.047 | [2] 0.084 | [3] -0.026 | [4] -0.086 | [5] -0.013 | [6] -0.147 | [7] 0.116 | [8] 0.07 | [9] -0.085 | IRAK-1-4 Inhibitor I 0.029 | ibrutinib 0.039 | [10] -0.021 | ralimetinib 0.036 | [11] -0.073 | [12] -0.017 | [13] -0.006 | pinometostat 0.007 | [14] -0.123 | [15] -0.011

POFUT1 (UniProt Q9H488)
inactive: erlotinib -0.043 | [1] 0.045 | [2] 0.013 | [3] -0.003 | [4] -0.051 | [5] 0.011 | [6] 0.041 | [7] 0 | [8] 0.086 | [9] -0.015 | IRAK-1-4 Inhibitor I 0.032 | ibrutinib 0.02 | [10] 0.014 | ralimetinib -0.042 | [11] -0.006 | [12] 0.076 | [13] 0.13 | pinometostat 0.024 | [14] -0.01 | [15] 0.427

POLDIP2 (UniProt Q9Y2S7)
inactive: erlotinib 0.025 | [1] 0.057 | [2] 0.041 | [3] 0.027 | [4] 0.12 | [5] 0.01 | [6] -0.033 | [7] 0 | [8] -0.053 | [9] 0.022 | IRAK-1-4 Inhibitor I 0.029 | ibrutinib -0.016 | [10] -0.078 | ralimetinib -0.045 | [11] -0.023 | [12] -0.009 | [13] -0.024 | pinometostat -0.027 | [14] -0.032 | [15] 0.032

POLR3F (UniProt Q9H1D9)
inactive: erlotinib 0.024 | [1] 0.005 | [2] 0.075 | [3] 0.067 | [4] 0.006 | [5] -0.025 | [6] -0.05 | [7] -0.041 | [8] -0.008 | [9] 0.026 | IRAK-1-4 Inhibitor I 0.045 | ibrutinib -0.024 | [10] -0.027 | ralimetinib -0.017 | [11] 0.022 | [12] -0.022 | [13] -0.04 | pinometostat -0.003 | [14] -0.013 | [15] -0.017

PNPT1 (UniProt Q8TCS8)
inactive: erlotinib 0.044 | [1] 0.097 | [2] 0.047 | [3] -0.046 | [4] 0.085 | [5] 0.002 | [6] 0.01 | [7] 0.021 | [8] -0.039 | [9] 0.011 | IRAK-1-4 Inhibitor I -0.032 | ibrutinib -0.02 | [10] -0.088 | ralimetinib -0.081 | [11] -0.144 | [12] 0.041 | [13] -0.034 | pinometostat -0.035 | [14] -0.014 | [15] 0.059
